The values below come from PubChem BioAssay AID330 (DTP/NCI, 2004).

The assay concerns P388 leukemia ip, CD2F1 mice, survival T/C. The experiment in a line: NCI In Vivo Anticancer Drug Screen. Data for tumor model P388 Leukemia (intraperitoneal) in CD2F1 (CDF1) mice. To be noted: T/C endpoint: median survival time, higher T/C = longer survival.
Setting [1] is: dose: 240.0 mg/kg/injection, schedule: Q01DX005 (ip), vehicle: saline with Tween-80.
[2] abbreviates: dose: 50.0 mg/kg/injection, schedule: Q01DX009 (ip), vehicle: saline.
Setting [3] is: dose: 50.0 mg/kg/injection, schedule: Q01DX005 (ip), vehicle: saline with Tween-80.
Where [4] appears, read: dose: 200.0 mg/kg/injection, schedule: Q01DX005 (ip), vehicle: saline with Tween-80.
Where [5] appears, read: dose: 200.0 mg/kg/injection, schedule: Q01DX005 (ip), vehicle: Klucel (hydroxypropylcellulose) (HPC).
Where [6] appears, read: dose: 200.0 mg/kg/injection, schedule: Q01DX005 (ip), vehicle: saline.

Molecules are shown by their SMILES. The list does not hold the whole screen: it is rich in T/C values a quarter to a half above the control, in often repeated tests (any T/C) and in doses without a T/C. Further doses and runs are listed elsewhere. T/C: endpoint of the treated group in % of that of the vehicle group. Some entries give survivors of the animals treated and no T/C: the source files T/C as zero there, which appears to mark a toxic dose or a test without result, not a measured value. Some survivor counts are full or nearly so, which does not show that the dose was tolerated: the source hardly ever lists a survival T/C far under the control, and the zero likely stands for such cases as well. Survivors were counted at the toxicity check, usually on the fifth day, unless a day is given; later deaths do not show. Schedules are NCI's codes, taken here to give the interval after Q, in days (D) or hours (H), and the number of doses after X. Some doses were run more than once; their values stand side by side, smallest first. Where survival is the endpoint, this PubChem deposit counts one and a half times the control or more as active, and values a quarter to a half above the control carry no call in these data; other NCI protocols may use other cut-offs. Some T/C values carry the count of animals alive at the toxicity check (mostly the fifth day); without a count, all were alive then.

As to `C=C1CCN(c2ccc(C)cc2)C1=O`, the survivor count (dose: 32.0 mg/kg/injection, schedule: Q01DX009 (ip), vehicle: saline + alcohol) was 6 of 6. Turning to `CC(C)CC(C)(c1ccc(O)cc1)c1ccc(O)cc1`, the survivor count (dose: 400.0 mg/kg/injection, schedule: Q01DX009 (ip), vehicle: saline with Tween-80) is given as 2 of 6. In the case of `CCc1nc(N)nc(N)c1-c1ccc(NCCCN)c([N+](=O)[O-])c1`, the T/C (dose: 120.0 mg/kg/injection, schedule: Q01DX005 (ip), vehicle: saline with Tween-80) is 129 [5 of 6 alive] and 141 % of control. Besides, the survivor count under setting [1] was 0 of 6. `CCCN(CCC)C(=O)c1ccc([N+](=O)[O-])cc1`: where the note is “dose: 25.0 mg/kg/injection, schedule: Q01DX009 (ip), vehicle: saline with Tween-80”, the survivor count is on record as 6 of 6. The T/C (dose: 50.0 mg/kg/injection, schedule: Q01DX009 (ip), vehicle: saline with Tween-80) is 141 % of control. Take `Cc1cccc(Oc2ccc(C(F)(F)F)cc2[N+](=O)[O-])c1C`: the survivor count (dose: 200.0 mg/kg/injection, schedule: Q01DX009 (ip), vehicle: saline) is 6 of 6.

In the case of `NCC(=O)O`, the survivor count is recorded as 3 of 6 (dose: 30.0 mg/kg/injection, schedule: Q01DX005 (ip), vehicle: saline); 0 of 6 (dose: 60.0 mg/kg/injection, schedule: Q01DX005 (ip), vehicle: saline); 0 of 6 (dose: 120.0 mg/kg/injection, schedule: Q01DX005 (ip), vehicle: saline); 0 of 6 (dose: 240.0 mg/kg/injection, schedule: Q01DX005 (ip), vehicle: saline).

As to `C=CC(C)(C)[N+](C)(C)C`, the survivor count under setting [2] is listed as 3 of 6.

For the compound `O=c1ccc2cc3ccoc3c(OCCCCCCCCCCCCOc3c4occc4cc4ccc(=O)oc34)c2o1`, the survivor count reads like this: under setting [3], 6 of 6; (dose: 100.0 mg/kg/injection, schedule: Q01DX001 (ip), vehicle: saline with Tween-80) 6 of 6; (dose: 200.0 mg/kg/injection, schedule: Q01DX001 (ip), vehicle: saline with Tween-80) 6 of 6; (dose: 400.0 mg/kg/injection, schedule: Q01DX001 (ip), vehicle: saline with Tween-80) 6 of 6. For the compound `O=NNc1ccc(-c2ccc([N+](=O)[O-])cc2)cn1`, the T/C is 144 % of control (dose: 1.56 mg/kg/injection, schedule: Q01DX009 (ip), vehicle: saline) and 138 % of control [5 of 6 alive] (dose: 3.12 mg/kg/injection, schedule: Q01DX009 (ip), vehicle: saline). In addition, the survivor count (dose: 6.25 mg/kg/injection, schedule: Q01DX009 (ip), vehicle: saline) is given as 5 of 6; the survivor count (dose: 12.5 mg/kg/injection, schedule: Q01DX009 (ip), vehicle: saline) was 3 of 6 and 5 of 6; the survivor count (dose: 25.0 mg/kg/injection, schedule: Q01DX009 (ip), vehicle: saline) is reported as 1 of 6; the survivor count under setting [2] is given as 0 of 6.

For `CN=C(NC)c1ccc(NC(=O)c2ccc(C(=O)Nc3ccc(C(=NC)NC)c(C)c3)cc2)cc1C`, where the note is “dose: 12.5 mg/kg/injection, schedule: Q01DX005 (ip), vehicle: saline with Tween-80”, the T/C is 129 % of control. Besides, the survivor count reads like this: under setting [3], 4 of 6; (dose: 100.0 mg/kg/injection, schedule: Q01DX005 (ip), vehicle: saline with Tween-80) 0 of 6; under setting [4], 0 of 6.

Turning to `C=C1C=[n+]2ccccc2=N1`, under “dose: 100.0 mg/kg/injection, schedule: Q01DX009 (ip), vehicle: saline”, the survivor count is on record as 1 of 6. In the case of `C=[CH][Sn][CH2]CCC`, the survivor count is, setting by setting: (dose: 50.0 mg/kg/injection, schedule: Q01DX009 (ip), vehicle: Klucel (hydroxypropylcellulose) (HPC)) 3 of 5; (dose: 200.0 mg/kg/injection, schedule: Q01DX009 (ip), vehicle: Klucel (hydroxypropylcellulose) (HPC)) 0 of 6. Turning to `CC(C)N1CCN(c2ccc(OCC3COC(Cn4cncn4)(c4ccc(Cl)cc4Cl)O3)cc2)CC1` (stereo not given), under setting [5], the survivor count is recorded as 1 of 6. For the compound `CCCCCNC(=O)c1csc(-c2csc(CCNC(C)=O)n2)n1`, the survivor count (dose: 200.0 mg/kg/injection, schedule: Q01DX009 (ip), vehicle: distilled water + Tween-80) is 1 of 6. On to `NC1=CC(=O)c2nc(-c3ccccc3N)ccc2C1=O`, for which, where the note is “dose: 400.0 mg/kg/injection, schedule: Q04DX003 (ip), vehicle: Klucel (hydroxypropylcellulose) (HPC)”, the survivor count was 2 of 6. On to `OCCN1CCN(CCCN2c3cc(Cl)ccc3Sc3sccc32)CC1`, for which the survivor count is 1 of 6 under setting [5] and 1 of 6 under setting [6]. For `Cc1ccc(Nc2nnc(Nc3ccc(C)cn3)c3ccccc23)nc1`, the survivor count under setting [4] is 6 of 6. With `CCCCCOC(=O)c1ccccc1OP(=O)(N(C)C)N(C)C`, the survivor count under setting [6] is 0 of 6. In the case of `Cc1ccc(-n2c(=S)n(-c3ccccc3C)c3nc4ccccc4nc2/c3=N\Nc2ccccc2)cc1`, the survivor count under setting [1] is 0 of 6. Take `O=[N+]([O-])c1c[nH]n2c([N+](=O)[O-])cnc12`: the survivor count is on record as 6 of 6 (dose: 3.13 mg/kg/injection, schedule: Q01DX009 (ip), vehicle: other); 3 of 6 (dose: 25.0 mg/kg/injection, schedule: Q01DX009 (ip), vehicle: other); 1 of 6 (dose: 50.0 mg/kg/injection, schedule: Q01DX009 (ip), vehicle: other).

As for `OCc1ccc(Cl)cc1O`, for the setting “dose: 400.0 mg/kg/injection, schedule: Q01DX009 (ip), vehicle: distilled water + Tween-80”, the survivor count is recorded as 3 of 6. Take `CCN([NH-])C(=S)[S-].CCN([NH-])C(=S)[S-].[Ni]`: the T/C (dose: 25.0 mg/kg/injection, schedule: Q04DX003 (ip), vehicle: Klucel (hydroxypropylcellulose) (HPC)) was 126 % of control. The survivor count (dose: 50.0 mg/kg/injection, schedule: Q04DX003 (ip), vehicle: Klucel (hydroxypropylcellulose) (HPC)) was 2 of 6 and the survivor count (dose: 100.0 mg/kg/injection, schedule: Q04DX003 (ip), vehicle: Klucel (hydroxypropylcellulose) (HPC)) is listed as 1 of 6. For the compound `CCCCCCCCC#CCO`, the survivor count under setting [1] is recorded as 3 of 6.
